# Most values lie at the floor of the assay. Slopes are relative: functional sequences can read slightly below zero.
# Test system: Saccharomyces cerevisiae PS128 hsf1 delta, HSF1(1-493) fusion
# Assay: growth estimate (transactivation domain function in HSF1 fusion, heat-shock survival) (a.u. (slope of normalised read count over time)); higher = stronger growth at 37°C, i.e. more transactivation activity
# Details: library: random library
row,Substance,growth estimate
1,QFKARGTASQSDWSVR,< -0.25
2,QFLSIH,< -0.25
3,QFPTRSVSERLALTLWLYRA,< -0.25
4,QFQTRFEKAVWKYM,-0.246
5,QFVCGLVRPIGECTSGLKRI,< -0.25
6,QFVERFRRSIRYLVTT,< -0.25
7,QGAKAQTACPVSSYFS,< -0.25
8,QGASAVWSRKS,< -0.25
9,QGCMVVTAKRWRYETADP,< -0.25
10,QGCPE,< -0.25
11,QGCTNRRCADTFEVKAG,< -0.25
12,QGD,< -0.25
13,QGGNAWLILTATWET,< -0.25
14,QGGPVYNMQSKAKGKGGRAA,< -0.25
15,QGGYDLGWRVSSAKSRKPCG,< -0.25
16,QGHRLERRNSISVSEPYTKV,< -0.25
17,QGIIWQVSFS,< -0.25
18,QGKRARMLSSTEHPARMAYI,< -0.25
19,QGLVNRRFAEAHGMHCVSVP,< -0.25
20,QGMNMYSAGFRRSPGILDRY,< -0.25
21,QGNKWLALIGTVRP,-0.243
22,QGPA,< -0.25
23,QGPKLRTGSRANALSGWCNT,< -0.25
24,QGRGITRFRDATGSYVLSGL,< -0.25
25,QGSLALSTY,< -0.25

row,Substance,growth estimate
1,QGVDGNPQKFGVECRTTMSS,< -0.25
2,QGVRRGFRQCLRSAEGCTKL,< -0.25
3,QGVRT,< -0.25
4,QGWESSP,< -0.25
5,QGYYHVRGHPGRARGKTISG,< -0.25
6,QHDGSNRTGNDGITSARL,< -0.25
7,QHF,< -0.25
8,QHGVKFIARSGALCTRLRDC,< -0.25
9,QHIIRTRLTWGTRSLALNPL,< -0.25
10,QHILTPFSDIICRRQKISSR,< -0.25
11,QHQG,< -0.25
12,QHR,< -0.25
13,QHRAHSAQV,< -0.25
14,QHRSPWPGVG,< -0.25
15,QHWAEACVSDWRIGVPLAPT,< -0.25
16,QIAAVNDQTLEDLVHMVIS,< -0.25
17,QIARLRVFRWLASPRERDHI,< -0.25
18,QIDVSQRVLGRDRQRTLFCA,< -0.25
19,QIFTVMTATRGVS,< -0.25
20,QIGAASRKKDSRIP,< -0.25
21,QIGPEWGEGSVRCLEPR,< -0.25
22,QIHRSSLGQGCGPSNSIS,< -0.25
23,QIKGAVFRVLYYKVREVQ,< -0.25
24,QIMIYPATLYLGFQRTVRTK,< -0.25
25,QINHRAVSSTDQKELLGDES,< -0.25

row,Substance,growth estimate
1,QIRQFAGFSLSDYLTSF,< -0.25
2,QIRWLGPLHYVSAQCTDRAR,< -0.25
3,QITPISALCNIKPLTCAGRM,< -0.25
4,QKAGIIVCRAPSFINTRRHH,< -0.25
5,QKATSCIIHGVRMTDLARRG,< -0.25
6,QKERILYTHTIRRGADT,< -0.25
7,QKIPSFQSGCCF,< -0.25
8,QKLYL,< -0.25
9,QKSLFGPKRSGGGKPPSDSS,< -0.25
10,QKTDLSSSKEGSVR,< -0.25
11,QLALSACGQTPQTAA,< -0.25
12,QLCCGIRKVVVMTANINALR,< -0.25
13,QLCLRDDRRI,< -0.25
14,QLDLC,< -0.25
15,QLDTRGGLALDTSAQ,< -0.25
16,QLEAR,< -0.25
17,QLG,< -0.25
18,QLGGPFI,< -0.25
19,QLGTTSACDYHTHGGSARLP,-0.231
20,QLGWLVH,< -0.25
21,QLIA,< -0.25
22,QLLEERRPGLGVWS,< -0.25
23,QLLRHLHVANGGRHIGGARG,< -0.25
24,QLLSGNAEDTEVSGVYLTSN,< -0.25
25,QLMPCGAVDRLGPQRWSGQG,< -0.25

# Given with bars between the fields: part of the list above
row | Substance | growth estimate
8 | QGASAVWSRKS | < -0.25
10 | QGCPE | < -0.25
20 | QGMNMYSAGFRRSPGILDRY | < -0.25
14 | QLDLC | < -0.25

# Further results.

row,Substance,growth estimate
1,QLN,< -0.25
2,QLNYWFC,< -0.25
3,QLP,< -0.25
4,QLPPLI,< -0.25
5,QLQRVRWIPSTARPRCSGLH,< -0.25
6,QLRCICVLIRWAVCR,-0.219
7,QLRGRIFQEPTHKGNWSGLT,< -0.25
8,QLRSDRVQPALRVTVHKWRR,< -0.25
9,QLRSGEARIVQPLTYGPRLI,< -0.25
10,QLSDFLITEE,-0.174
11,QLSGRVATAAGCVSIVWTRK,< -0.25
12,QLSNRVGGRAAHNLIWIYSV,< -0.25
13,QLSPGVKCCELAKVGIV,< -0.25
14,QLSTFWR,< -0.25
15,QLSWYCGGSVIFADWPVPAS,< -0.25
16,QLTGPRQYSVDLRAAVTWTS,< -0.25
17,QLTLGHCNSGAVIRVVALCC,< -0.25
18,QLTRT,< -0.25
19,QLVDHDQSVCLHVTNFQGGW,-0.245
20,QLVLVLMPKKHGCRLKRCSG,< -0.25
21,QLVNSASEPIRRMVSVILIT,< -0.25
22,QLVPLT,-0.25
23,QLVRNQTGGTRNNSTDPGKR,< -0.25
24,QLYN,< -0.25
25,QLYPLVVIATM,-0.243

row,Substance,growth estimate
1,QLYQ,< -0.25
2,QMGCSEPAGRGEALYPVE,< -0.25
3,QMIMGEEPGPAMDPARSYRR,< -0.25
4,QMKCYRP,< -0.25
5,QML,< -0.25
6,QMRPIHRNVMAMGIERPRRT,< -0.25
7,QMTIPNSRSAGVVFIV,< -0.25
8,QNGGVGKPIVVISSMPASIF,< -0.25
9,QNHRCSRVALPRLDERRVAA,< -0.25
10,QNIKLKNSPGSY,< -0.25
11,QNLFIHNLLLC,< -0.25
12,QNPGKHMFAPCQIECAGQMV,< -0.25
13,QNTGFAQ,< -0.25
14,QNVGWAYESSIRVNGRTAGS,< -0.25
15,QPAIG,< -0.25
16,QPEERCGILGHVLIGL,< -0.25
17,QPESLYPFPDGVNGHVSA,< -0.25
18,QPFARVCCTASVCMTPPPRS,< -0.25
19,QPMFAKAEYTELWGQQRPGA,< -0.25
20,QPNRTFPWLPGTGGTD,< -0.25
21,QPPLRWGG,< -0.25
22,QPQFAKVSYLVT,< -0.25
23,QPRTPRWSAGLRERPTLVKP,< -0.25
24,QPRV,< -0.25
25,QPSAGLGLYRRNQMEPTTRK,< -0.25

row,Substance,growth estimate
1,QPSALHCVARSVSPRQNTSR,< -0.25
2,QPSQPLRDRRRLLNEYRDPP,< -0.25
3,QPSTIDHLAIVLRIFLASHS,< -0.25
4,QPTGEQLVPFFAYTRKHTPR,< -0.25
5,QPTKGQLAATSVIPIPGLL,-0.224
6,QPTL,< -0.25
7,QPVRLRSPS,< -0.25
8,QQATSVSNR,< -0.25
9,QQESWN,< -0.25
10,QQGRTRFLRRWRPDRSHVSR,< -0.25
11,QQILAMGAFPAVFPQRRFVH,< -0.25
12,QQLAALS,< -0.25
13,QQSLIQRYRLKAPGRKRGRA,< -0.25
14,QQSVRREAPLC,< -0.25
15,QQTNDQVCYSVTTNDCLFSS,< -0.25
16,QQVATRYLKLADSVVHLCVR,< -0.25
17,QQVHQVVNPRSCRKCLEGFR,< -0.25
18,QQYTRFTRPGA,< -0.25
19,QRAVRTPGVEKLQTAQRVAG,< -0.25
20,QRAYGSSECKL,< -0.25
21,QRCDYREGVETGDRICGRRT,< -0.25
22,QREATKLVRQEGVPLTARSP,< -0.25
23,QRFLIRRRDDRRGNANRISF,< -0.25
24,QRFSGAELNSCDFYALSTRS,< -0.25
25,QRGVS,< -0.25

row,Substance,growth estimate
1,QRHGATGGRAHNLRRHWL,< -0.25
2,QRLDSRTSRN,< -0.25
3,QRLFSHVCYGIPIIYVERHR,< -0.25
4,QRLSVANGYQLRQAILSRYS,< -0.25
5,QRLWCYKLYYPSVDTGGHVT,< -0.25
6,QRNCIVSYRSHRPIQ,< -0.25
7,QRPKV,-0.246
8,QRPSDVLNYESSSTYGPVYA,< -0.25
9,QRRCSWRRRRFRGQGFKPV,< -0.25
10,QRRGGCHGGIEVVFSSDMT,< -0.25
11,QRSLRRCKIYLWYRAERHVA,-0.237
12,QRSPVANSDDALASEITILD,< -0.25
13,QRSVSFCCEVIENSPGKEDD,< -0.25
14,QRTDMGMLGAR,< -0.25
15,QRTNAEIGDNR,< -0.25
16,QRTVHN,< -0.25
17,QRVCVERRGVGTARGKG,< -0.25
18,QRVGSQHRSWIEREYRTSRR,-0.248
19,QRVLVVSDTDDWLEFTLRRM,< -0.25
20,QRVMGVRSPSVPLLVWRRFG,< -0.25
21,QRVRDRTEPTAPCWPGRSAH,< -0.25
22,QRWDPVMQTRFVDVCSRGGR,< -0.25
23,QSAIGRVRLTS,< -0.25
24,QSAIGSRAPL,< -0.25
25,QSAL,< -0.25

# Random excerpt: 4 records from the list
row,Substance,growth estimate
5,QRLWCYKLYYPSVDTGGHVT,< -0.25
14,QRTDMGMLGAR,< -0.25
13,QRSVSFCCEVIENSPGKEDD,< -0.25
2,QRLDSRTSRN,< -0.25

# (continued)

row,Substance,growth estimate
1,QSCRMNQITLMSTWMYRGFV,< -0.25
2,QSDITTRVVATAMCGAWIGV,< -0.25
3,QSGMKIDS,-0.231
4,QSGSTDVLQLGILVRLDPAS,< -0.25
5,QSHDALSDAVCASI,< -0.25
6,QSILKMN,< -0.25
7,QSILSV,< -0.25
8,QSIPLGGARLSF,< -0.25
9,QSKEIQTDAWWWSRSGFTYR,< -0.25
10,QSLMSGGDEIISSVHSGVKD,< -0.25
11,QSLN,< -0.25
12,QSLR,< -0.25
13,QSLRHPPVDPY,< -0.25
14,QSLRKRACHTEYRIIE,< -0.25
15,QSLRRDASCTNGQGFFRVMV,< -0.25
16,QSMKS,< -0.25
17,QSPQRQGQCFSGQSGDFYVL,< -0.25
18,QSQAKRRFGLRRLCSRSRAG,< -0.25
19,QSQKLSRYVVMGCKVW,< -0.25
20,QSRHPKKV,< -0.25
21,QSRLAISV,< -0.25
22,QSRLRSIACVFSSGWGPPHR,< -0.25
23,QSRSRFECASA,< -0.25

# Rewritten bar-delimited: part of the list above.
row | Substance | growth estimate
19 | QIFTVMTATRGVS | < -0.25
20 | QIGAASRKKDSRIP | < -0.25
21 | QIGPEWGEGSVRCLEPR | < -0.25

# Reference: the supplement of paper PMC5949888
